Test results from patent US20080096967A1, “Formulations for Injection of Catecholic Butanes, Including Ndga Compounds, Into Animals” (priority 2005, published 2008).
The source gives many values for each of these; only a part stands here.

Experiment: Solubility of M4N in formulations containing modified celluloses (visual inspection)
Format: physicochemical
Method: A 10 mL solution of 50% HP-β-CD (w/v) and 0.5% hydroxypropyl methylcellulose (“HPMC”) (w/v) for use as a solubilizing agent and/or excipient was made as follows: 5.9 mL of water suitable for injection into animals (“WFI”) were placed in a glass beaker containing a stir bar. The beaker was placed on a magnetic plate, and the stir bar was set to stir at medium speed. Five grams of HP-β-CD were added slowly to the stirring WFI, using a spatula to direct the HP-β-CD to the center of the beaker. The HP-β-CD solution was stirred for about 24 hr or until the HP-β-CD was dissolved completely upon visual inspection. The resulting solution measured about 9.4 mL. About 0.6 mL of WFI was added to this resulting solution to reach 10 mL, to produce a solution of 50% HP-β-CD (w/v). Fifty milligrams of HPMC were added to the 50% HP-β-CD solution and stirred for about 1 hr or until the HPMC was dissolved upon visual inspection. The final solution was stirred for about 1 hr and was then stored at room temperature, protected from light. This method of making modified cyclodextrins with modified celluloses may be scaled up or down to obtain the desired volume or concentration of HP-β-CD/HPMC solution. Other modified cyclodextrin/modified cellulose solutions may be similarly made, for example, by substituting HP-β-CD with other modified cyclodextrins, or HPMC with other modified celluloses, in the process described above.
A 10 mL solution of M4N at a concentration of about 10 mg/mL in 50% HP-β-CD/0.5% HPMC was made as follows. About 10 mL of the 50% HP-β-CD/0.5% HPMC solution were added to a glass beaker containing a stir bar. The beaker was placed on a magnetic plate and the stir bar was set to stir at medium speed. About 100 mg of M4N were slowly added to the 50% HP-β-CD/0.5% HPMC in the center of the beaker with the aid of a spatula. The M4N/50% HP-β-CD/0.5% HPMC mixture was stirred for 24 hr or until all M4N was uniformly suspended without any clumps being present. The M4N/50% HP-β-CD/0.5% HPMC mixture was heated at about 90° C. for about 30 min. (or longer if a larger volume of solution was desired, for example, 1 hr at 90° C. for 500 mL of the M4N/50% HP-β-CD/0.5% HPMC mixture), or longer as needed to ensure complete dissolution of M4N. […] The final M4N/50% HP-β-CD/0.5% HPMC solution was stored at room temperature and was kept protected from light.
A 10 mL solution of 5% ethylcellulose (“EC”) in ethanol (w/v) for use as a solubilizing agent and/or excipient was made as follows: 10 mL of 100% ethyl alcohol (“EtOH”) were placed in a glass beaker containing a stir bar, covered by a round Teflon® cover. The beaker was placed on a magnetic plate, and the stir bar was set to stir at medium speed. Five hundred (500) milligrams of EC was added slowly to the stirring ethanol, using a spatula to direct the EC to the center of the beaker so as to prevent EC powder from sticking to the beaker wall. The EC solution was stirred for about 2 hr or until the EC was dissolved completely upon visual inspection. The final solution was stored at room temperature, and was protected from light.
A 10 mL solution of M4N at a concentration of about 20 mg/mL in 5% EC (w/v) (the “EC formulation”) was made as follows. About 10 mL of 5% EC formulation, made as described above, were added to a glass beaker containing a stir bar. The beaker was placed on a magnetic plate and the stir bar was set to stir at medium speed, and covered with a round Teflon® cover. About 200 mg of M4N were slowly added to the 5% EC formulation in the center of the beaker with the aid of a spatula to prevent M4N from sticking to the beaker wall. The M4N/EC mixture was stirred for 2 hr or until all M4N had dissolved or was uniformly suspended without any clumps being present. The M4N/EC mixture was heated at about 60° C. for about 30 min. […]

Measured: Dissolution After Cool-Down

COc1ccc(C[C@@H](C)[C@@H](C)Cc2ccc(OC)c(OC)c2)cc1OC [Formulation M4N, meso-1,4-bis(3,4-dimethoxyphenyl)-2,3-dimethylbutane]
N: EC 5% (w/v) in EtOH, M4N 30 mg/mL | EC 5% (w/v) in EtOH, M4N 50 mg/mL | EC 5% (w/v) in EtOH, M4N 100 mg/mL
Y: 50% HP-β-CD, 0.5% HPMC, M4N 1 mg/mL | 50% HP-β-CD, 0.5% HPMC, M4N 10 mg/mL | EC 5% (w/v) in EtOH, M4N 10 mg/mL | EC 5% (w/v) in EtOH, M4N 20 mg/mL
